PubChem BioAssay AID504774, Drosophila RNAi Screening Center, 2011
In all, the deposit lists about 23,000 reagents; this is a random part of those that have a named target and a result. 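Values are quantile-normalised luminescence on an arbitrary scale; higher means more cells surviving MMS.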 Reagents against one gene are numbered here. Further read-outs or replicates are left out here. Reagent sequences are not shown.

- Assay: 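Knock-downs that shift viability of MMS-exposed cells relative to untreated ones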 (primary screen)
- System: Drosophila Kc167 cells
- Knock-down reagent: long dsRNA against Drosophila genes, about 0.25 µg dsRNA per well
- Timing: about 6 days: 3 days knock-down, then 3 days with or without MMS
- Treatment: methyl methanesulphonate 0.004% (w/v) for 3 days after knock-down
- Detection: 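ATP-dependent luminescence as a measure of live cells in MMS-exposed wells, quantile normalised within each plate, with replicate values also given as a mean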
- Scale: mean viability with MMS: higher = more surviving cells after MMS

| gene knocked down | reagent no. | mean viability with MMS |
| --- | --- | --- |
| LBR (Lamin B receptor) | 1 | 2.70e6 |
| CG7394 | 1 | 3.46e6 |
| Prm (Paramyosin) | 1 | 3.47e6 |
| Prm (Paramyosin) | 2 | 3.41e6 |
| Prm (Paramyosin) | 3 | 3.61e6 |
| Wdr81 (WD repeat domain 81) | 1 | 3.57e6 |
| Mp20 (Muscle protein 20) | 1 | 3.54e6 |
| Whamy (WHAMM and JMY related) | 1 | 3.59e6 |
| dob (doppelganger von brummer) | 1 | 3.76e6 |
| CG33702 | 1 | 3.42e6 |
| CG7888 | 1 | 3.71e6 |
| CG8012 | 1 | 3.39e6 |
| CG6415 | 1 | 3.49e6 |
| Mst84Db (Male-specific RNA 84Db) | 1 | 3.44e6 |
| Mst84Db (Male-specific RNA 84Db) | 2 | 3.55e6 |
| CG12551 (retired record) | 1 | 3.68e6 |
| CG12551 (retired record) | 2 | 3.63e6 |
| CG16779 | 1 | 3.52e6 |
| CG42500 | 1 | 3.47e6 |
| PGRP-LC (Peptidoglycan recognition protein LC) | 1 | 3.44e6 |
| PGRP-LC (Peptidoglycan recognition protein LC) | 2 | 3.62e6 |
| PGRP-LC (Peptidoglycan recognition protein LC) | 3 | 3.49e6 |
| spdi (split discs) | 1 | 3.53e6 |
| spdi (split discs) | 2 | 3.60e6 |
| CG18810 | 1 | 3.58e6 |
| CG13227 | 1 | 3.48e6 |

Next part, starting with the last 3 of the part before.
| gene knocked down | reagent no. | mean viability with MMS |
| --- | --- | --- |
| spdi (split discs) | 2 | 3.60e6 |
| CG18810 | 1 | 3.58e6 |
| CG13227 | 1 | 3.48e6 |
| CG33285 | 1 | 3.49e6 |
| Pcf11 (Pcf11 cleavage and polyadenylation factor subunit) | 1 | 2.92e6 |
| CG3984 | 1 | 3.59e6 |
| CG13901 | 1 | 3.56e6 |
| l(1)G0196 (lethal (1) G0196) | 1 | 2.45e6 |
| l(1)G0196 (lethal (1) G0196) | 2 | 3.65e6 |
| l(1)G0196 (lethal (1) G0196) | 3 | 3.56e6 |
| Samuel | 1 | 3.38e6 |
| Samuel | 2 | 2.97e6 |
| Samuel | 3 | 3.56e6 |
| Samuel | 4 | 3.72e6 |
| Samuel | 5 | 3.41e6 |
| CG14420 | 1 | 3.46e6 |
| asun (asunder) | 1 | 3.56e6 |
| Strump (Strumpellin) | 1 | 3.55e6 |
| Fit2 (Fermitin 2) | 1 | 3.72e6 |
| Rip11 (Rab11 interacting protein) | 1 | 3.54e6 |
| eys (eyes shut) | 1 | 3.26e6 |
| eys (eyes shut) | 2 | 3.44e6 |
| eys (eyes shut) | 3 | 3.56e6 |
| eys (eyes shut) | 4 | 3.39e6 |
| tey (teyrha-meyrha) | 1 | 3.55e6 |
| tey (teyrha-meyrha) | 2 | 3.30e6 |
| GlcAT-P (Glucuronyltransferase P) | 1 | 3.61e6 |
| GlcAT-P (Glucuronyltransferase P) | 2 | 3.40e6 |
| CG13544 | 1 | 3.49e6 |
| SrpRbeta (Signal recognition particle receptor beta) | 1 | 3.62e6 |
| sut2 (sugar transporter 2) | 1 | 3.66e6 |
| Atpalpha (Na pump alpha subunit) | 1 | 3.54e6 |
| Nprl3 (Nitrogen permease regulator-like 3) | 1 | 3.51e6 |
| wek (weckle) | 1 | 3.50e6 |
| Muc26B (Mucin 26B) | 1 | 3.72e6 |
| CG5883 | 1 | 3.63e6 |
| MFS14 (Major Facilitator Superfamily Transporter 14) | 1 | 3.36e6 |
| CG8620 | 1 | 3.94e6 |
| CG17928 | 1 | 3.55e6 |
| TotE (Turandot E) | 1 | 3.57e6 |
| CG31418 | 1 | 3.46e6 |
| peg (pegasus) | 1 | 3.58e6 |
| Ir7c (Ionotropic receptor 7c) | 1 | 3.34e6 |
| CG13606 | 1 | 3.65e6 |
| Hers (Histone gene-specific Epigenetic Repressor in late S phase) | 1 | 3.52e6 |
| Hers (Histone gene-specific Epigenetic Repressor in late S phase) | 2 | 3.67e6 |
